# Test results reported in the supplement of paper PMC11732987, “Enantioselective OTUD7B fragment discovery through chemoproteomics screening and high-throughput optimisation” (Communications Chemistry, 2025).
# Amino acid sequences for entries named in this document (tags omitted). A change or cut given only in a name is not applied to a line headed by its entry.
# UniProt P51798: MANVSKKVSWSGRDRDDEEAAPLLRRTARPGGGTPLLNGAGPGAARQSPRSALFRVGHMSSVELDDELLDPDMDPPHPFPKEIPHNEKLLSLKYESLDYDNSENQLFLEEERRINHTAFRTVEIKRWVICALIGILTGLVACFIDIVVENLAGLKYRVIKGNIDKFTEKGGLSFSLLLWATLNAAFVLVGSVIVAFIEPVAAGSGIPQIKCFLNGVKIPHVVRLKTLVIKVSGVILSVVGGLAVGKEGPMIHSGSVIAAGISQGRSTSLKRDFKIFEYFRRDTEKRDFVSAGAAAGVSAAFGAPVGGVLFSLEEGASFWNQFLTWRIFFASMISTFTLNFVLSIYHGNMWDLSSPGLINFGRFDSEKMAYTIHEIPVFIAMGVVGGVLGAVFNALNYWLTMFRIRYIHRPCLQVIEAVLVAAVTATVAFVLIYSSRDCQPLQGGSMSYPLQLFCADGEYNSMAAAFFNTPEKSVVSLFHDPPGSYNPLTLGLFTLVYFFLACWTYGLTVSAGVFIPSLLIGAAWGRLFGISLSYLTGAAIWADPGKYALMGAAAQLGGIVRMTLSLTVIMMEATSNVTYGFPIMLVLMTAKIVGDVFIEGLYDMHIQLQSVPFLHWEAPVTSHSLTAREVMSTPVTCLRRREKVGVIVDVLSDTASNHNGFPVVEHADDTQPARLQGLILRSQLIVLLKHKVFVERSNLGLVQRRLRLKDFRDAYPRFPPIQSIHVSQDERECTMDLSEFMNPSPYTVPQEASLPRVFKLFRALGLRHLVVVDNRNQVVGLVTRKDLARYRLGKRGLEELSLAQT
# This is one part of the list. The data scatter; read single values as rough.
# Target: T1, CLCN7 C733 (UniProt P51798)
# T1 sequence (whole entry): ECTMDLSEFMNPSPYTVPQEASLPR
# Experiment: log2 mean competition ratio of IA-DTB cysteine labelling (DMSO/compound) (log2 ratio); higher = stronger cysteine engagement by compound
# Conditions: 50 µM; treatment time: 4 h; cell line lysate: HEK293T
# Method: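 IA-DTB competitive cysteine chemoproteomics in HEK293T RIPA lysate. Lysates were treated with compound 29 or 30 at 50 or 200 µM for 4 h, then IA-DTB (500 µM, 1 h), trypsin-digested, NeutrAvidin-enriched and analysed by diaPASEF. Competition ratio = intensity DMSO / intensity compound (n=4 treated, n=64 DMSO); binding: mean log2 CR ≥ 1 and p ≤ 0.05 plus QC filters. Target is the cysteine site.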
row,SMILES,log2 mean competition ratio
1,O=C(CCl)N[C@H]1CCCc2ccccc21,0.104
2,O=C(CCl)N[C@@H]1CCCc2ccccc21,-0.241

# Same assay, conditions: 200 µM; treatment time: 4 h; cell line lysate: HEK293T
row,SMILES,log2 mean competition ratio
1,O=C(CCl)N[C@H]1CCCc2ccccc21,-0.0755
2,O=C(CCl)N[C@@H]1CCCc2ccccc21,0.203
